Some of the results follow.
What was measured:
Test in all cases: log2 fold change, soluble protein after heating vs DMSO (PISA); higher = thermal stabilisation; K562 cells, 10 uM, 30 min; active = over 0.2 and 3.5 SD of the protein, either way, in both replicates (recomputed)
[1] = compound: C1=CC=C(C=C1)[C@H](COC2=CC3=C(C=C2)NC(=O)N3)NC(=O)C4=CC=CN(C4=O)CC5=CC(=C(C=C5)F)F
How it was run: (§1)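 K562 cells (2×10^6 cells/mL) were treated with 10 μM compound for 30 min, and aliquots were heated for 3 min over 48°C-58°C. Pooled aliquots were extracted in PBS with 0.5% NP-40 at 4°C, and the supernatant after 21,000xg for 90 min was measured by TMTpro 16plex LC-MS/MS with channel sums equalised. Reported thermal stability, relative to control samples and from duplicates, is a log2 fold change.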

Chains of the proteins cited; added tags and fusions are not shown. Lines headed by an entry give the natural chain unless they say otherwise; changes in a name come on top.
UniProt P49902: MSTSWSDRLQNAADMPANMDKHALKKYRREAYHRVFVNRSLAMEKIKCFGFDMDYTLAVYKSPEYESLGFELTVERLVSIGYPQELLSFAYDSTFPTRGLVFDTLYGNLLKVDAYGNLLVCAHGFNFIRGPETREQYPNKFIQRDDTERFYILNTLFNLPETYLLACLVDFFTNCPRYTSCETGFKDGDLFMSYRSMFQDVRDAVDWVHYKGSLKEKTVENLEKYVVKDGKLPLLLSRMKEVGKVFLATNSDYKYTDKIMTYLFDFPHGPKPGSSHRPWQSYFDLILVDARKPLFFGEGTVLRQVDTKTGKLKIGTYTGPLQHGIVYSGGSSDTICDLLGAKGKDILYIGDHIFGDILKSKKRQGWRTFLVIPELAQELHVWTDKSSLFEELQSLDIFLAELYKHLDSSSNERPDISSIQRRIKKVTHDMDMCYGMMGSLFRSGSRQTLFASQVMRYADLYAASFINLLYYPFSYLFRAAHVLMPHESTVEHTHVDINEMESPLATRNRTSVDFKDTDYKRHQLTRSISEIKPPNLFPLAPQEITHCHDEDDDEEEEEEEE
UniProt P22059, whole entry, looked up: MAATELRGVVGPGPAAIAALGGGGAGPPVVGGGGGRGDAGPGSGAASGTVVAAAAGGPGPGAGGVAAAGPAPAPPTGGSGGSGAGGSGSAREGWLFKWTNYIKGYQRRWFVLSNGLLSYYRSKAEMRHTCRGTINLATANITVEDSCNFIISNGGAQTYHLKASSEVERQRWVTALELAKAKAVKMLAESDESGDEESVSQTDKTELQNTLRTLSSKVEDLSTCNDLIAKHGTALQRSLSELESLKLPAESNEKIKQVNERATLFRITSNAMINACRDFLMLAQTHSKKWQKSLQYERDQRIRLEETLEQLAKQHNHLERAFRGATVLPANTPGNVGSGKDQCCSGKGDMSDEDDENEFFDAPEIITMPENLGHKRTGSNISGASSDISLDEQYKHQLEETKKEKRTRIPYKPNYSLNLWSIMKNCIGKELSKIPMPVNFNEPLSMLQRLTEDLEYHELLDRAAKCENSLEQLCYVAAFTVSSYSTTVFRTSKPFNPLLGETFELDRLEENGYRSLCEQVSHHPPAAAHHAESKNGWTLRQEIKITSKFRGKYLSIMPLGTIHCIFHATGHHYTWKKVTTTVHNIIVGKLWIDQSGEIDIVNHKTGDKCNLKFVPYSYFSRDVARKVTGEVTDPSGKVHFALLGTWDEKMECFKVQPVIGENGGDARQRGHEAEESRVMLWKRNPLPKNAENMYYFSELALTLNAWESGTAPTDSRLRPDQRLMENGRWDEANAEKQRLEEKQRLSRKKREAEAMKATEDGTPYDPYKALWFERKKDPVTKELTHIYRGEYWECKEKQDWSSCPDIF
UniProt Q96MG7: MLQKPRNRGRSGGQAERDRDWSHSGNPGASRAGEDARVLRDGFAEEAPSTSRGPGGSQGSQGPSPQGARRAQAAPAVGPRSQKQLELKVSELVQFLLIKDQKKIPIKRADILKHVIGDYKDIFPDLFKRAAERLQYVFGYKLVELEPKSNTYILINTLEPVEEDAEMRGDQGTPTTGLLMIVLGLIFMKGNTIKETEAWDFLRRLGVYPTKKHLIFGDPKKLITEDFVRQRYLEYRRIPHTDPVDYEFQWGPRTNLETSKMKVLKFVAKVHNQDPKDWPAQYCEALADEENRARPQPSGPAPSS
UniProt Q9NRP0: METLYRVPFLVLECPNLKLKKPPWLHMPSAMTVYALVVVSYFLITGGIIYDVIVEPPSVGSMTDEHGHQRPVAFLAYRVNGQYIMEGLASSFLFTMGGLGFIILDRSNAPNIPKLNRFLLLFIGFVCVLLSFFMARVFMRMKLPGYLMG
UniProt Q9BRJ7: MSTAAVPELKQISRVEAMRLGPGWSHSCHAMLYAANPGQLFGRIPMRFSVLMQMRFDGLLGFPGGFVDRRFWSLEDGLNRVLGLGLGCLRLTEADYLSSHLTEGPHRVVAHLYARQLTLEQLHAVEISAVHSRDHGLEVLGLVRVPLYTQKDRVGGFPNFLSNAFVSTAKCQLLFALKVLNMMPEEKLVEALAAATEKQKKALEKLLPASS
UniProt Q9H6K4: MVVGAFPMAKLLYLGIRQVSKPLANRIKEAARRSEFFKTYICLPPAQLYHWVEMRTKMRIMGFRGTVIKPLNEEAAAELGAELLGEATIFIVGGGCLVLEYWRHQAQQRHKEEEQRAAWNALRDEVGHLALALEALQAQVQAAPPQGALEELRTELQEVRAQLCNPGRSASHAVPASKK
UniProt P35658: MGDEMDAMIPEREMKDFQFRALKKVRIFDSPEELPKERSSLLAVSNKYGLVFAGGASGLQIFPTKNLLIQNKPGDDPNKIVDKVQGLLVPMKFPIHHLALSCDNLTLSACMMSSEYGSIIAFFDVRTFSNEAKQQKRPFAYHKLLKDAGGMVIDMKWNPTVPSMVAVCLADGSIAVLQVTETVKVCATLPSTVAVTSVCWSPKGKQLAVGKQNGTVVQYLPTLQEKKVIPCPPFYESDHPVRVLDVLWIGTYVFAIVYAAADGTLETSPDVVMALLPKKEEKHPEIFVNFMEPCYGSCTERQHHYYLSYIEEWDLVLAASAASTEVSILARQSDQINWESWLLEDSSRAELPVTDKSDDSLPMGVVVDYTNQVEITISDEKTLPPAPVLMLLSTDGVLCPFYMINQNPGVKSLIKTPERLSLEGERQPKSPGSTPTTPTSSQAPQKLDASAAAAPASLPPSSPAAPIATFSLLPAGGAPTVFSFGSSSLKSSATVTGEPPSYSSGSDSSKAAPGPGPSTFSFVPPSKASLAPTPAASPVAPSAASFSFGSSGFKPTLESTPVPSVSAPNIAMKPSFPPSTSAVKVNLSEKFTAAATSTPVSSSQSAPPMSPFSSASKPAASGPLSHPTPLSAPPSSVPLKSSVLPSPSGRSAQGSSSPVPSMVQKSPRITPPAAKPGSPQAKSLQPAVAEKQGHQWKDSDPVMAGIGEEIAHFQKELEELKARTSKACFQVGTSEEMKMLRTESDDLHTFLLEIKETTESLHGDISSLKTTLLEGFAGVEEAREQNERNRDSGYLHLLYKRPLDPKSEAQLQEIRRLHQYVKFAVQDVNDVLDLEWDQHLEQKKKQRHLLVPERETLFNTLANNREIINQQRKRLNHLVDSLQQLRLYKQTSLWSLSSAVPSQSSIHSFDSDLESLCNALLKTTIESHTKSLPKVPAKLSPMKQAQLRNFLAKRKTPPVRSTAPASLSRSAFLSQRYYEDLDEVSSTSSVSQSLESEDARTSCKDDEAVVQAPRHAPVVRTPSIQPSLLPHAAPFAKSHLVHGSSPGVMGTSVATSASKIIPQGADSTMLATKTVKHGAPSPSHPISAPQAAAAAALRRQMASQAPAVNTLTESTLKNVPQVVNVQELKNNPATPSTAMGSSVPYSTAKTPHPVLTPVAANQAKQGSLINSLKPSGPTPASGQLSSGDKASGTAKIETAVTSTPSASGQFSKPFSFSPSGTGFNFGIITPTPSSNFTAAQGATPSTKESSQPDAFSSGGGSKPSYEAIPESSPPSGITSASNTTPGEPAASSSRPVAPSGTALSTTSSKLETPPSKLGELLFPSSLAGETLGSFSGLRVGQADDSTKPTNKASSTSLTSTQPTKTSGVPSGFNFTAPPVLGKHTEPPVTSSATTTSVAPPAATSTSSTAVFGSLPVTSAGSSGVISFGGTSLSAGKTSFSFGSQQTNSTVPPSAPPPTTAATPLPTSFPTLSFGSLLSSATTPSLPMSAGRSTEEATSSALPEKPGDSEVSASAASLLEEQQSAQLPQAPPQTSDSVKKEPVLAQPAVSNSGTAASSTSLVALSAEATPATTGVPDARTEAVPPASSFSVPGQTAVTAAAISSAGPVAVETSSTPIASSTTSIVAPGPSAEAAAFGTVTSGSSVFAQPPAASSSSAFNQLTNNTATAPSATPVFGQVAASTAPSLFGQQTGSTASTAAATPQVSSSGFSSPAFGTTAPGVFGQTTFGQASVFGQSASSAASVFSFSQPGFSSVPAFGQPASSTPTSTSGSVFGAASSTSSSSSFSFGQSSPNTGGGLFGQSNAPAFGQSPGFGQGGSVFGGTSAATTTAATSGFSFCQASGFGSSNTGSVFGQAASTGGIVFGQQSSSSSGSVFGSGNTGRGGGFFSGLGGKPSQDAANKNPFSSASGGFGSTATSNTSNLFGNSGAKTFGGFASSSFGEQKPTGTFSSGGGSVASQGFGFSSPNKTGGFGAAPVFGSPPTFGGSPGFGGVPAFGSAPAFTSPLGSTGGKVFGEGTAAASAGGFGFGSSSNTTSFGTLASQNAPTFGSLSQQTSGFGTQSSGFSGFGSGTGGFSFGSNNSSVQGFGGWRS
UniProt Q9H4B0: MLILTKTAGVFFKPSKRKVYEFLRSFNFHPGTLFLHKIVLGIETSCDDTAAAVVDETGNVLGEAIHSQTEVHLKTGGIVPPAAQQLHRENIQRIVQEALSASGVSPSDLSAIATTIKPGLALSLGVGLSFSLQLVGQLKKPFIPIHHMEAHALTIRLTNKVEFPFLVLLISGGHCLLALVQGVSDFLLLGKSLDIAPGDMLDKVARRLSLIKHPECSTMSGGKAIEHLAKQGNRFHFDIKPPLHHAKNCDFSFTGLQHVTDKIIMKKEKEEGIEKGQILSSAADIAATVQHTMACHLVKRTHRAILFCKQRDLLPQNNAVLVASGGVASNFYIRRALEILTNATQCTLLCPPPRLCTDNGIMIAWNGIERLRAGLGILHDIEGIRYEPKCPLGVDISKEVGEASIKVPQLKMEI
UniProt Q9H1P3, whole entry, looked up: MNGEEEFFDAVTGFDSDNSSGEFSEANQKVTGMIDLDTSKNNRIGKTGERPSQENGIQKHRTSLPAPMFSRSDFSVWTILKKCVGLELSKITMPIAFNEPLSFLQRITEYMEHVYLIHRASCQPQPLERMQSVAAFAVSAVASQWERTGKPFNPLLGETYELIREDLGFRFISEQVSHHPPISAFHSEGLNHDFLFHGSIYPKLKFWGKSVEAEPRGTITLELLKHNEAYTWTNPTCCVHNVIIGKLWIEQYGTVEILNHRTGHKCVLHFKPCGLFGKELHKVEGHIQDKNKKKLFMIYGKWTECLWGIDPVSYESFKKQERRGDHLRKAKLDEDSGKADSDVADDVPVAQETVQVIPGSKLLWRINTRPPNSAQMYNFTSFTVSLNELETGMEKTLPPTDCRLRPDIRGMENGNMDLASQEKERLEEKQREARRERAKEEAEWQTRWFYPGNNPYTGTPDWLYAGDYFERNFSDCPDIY
UniProt Q9BRQ3: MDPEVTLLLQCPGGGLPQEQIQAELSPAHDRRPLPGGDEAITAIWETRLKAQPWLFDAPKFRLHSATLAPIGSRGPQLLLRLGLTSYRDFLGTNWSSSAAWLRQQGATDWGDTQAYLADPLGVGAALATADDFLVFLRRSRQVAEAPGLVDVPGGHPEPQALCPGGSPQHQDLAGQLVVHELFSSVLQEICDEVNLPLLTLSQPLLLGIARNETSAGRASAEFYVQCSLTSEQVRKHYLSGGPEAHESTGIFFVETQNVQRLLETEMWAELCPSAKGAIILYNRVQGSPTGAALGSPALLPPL

[2] = compound: CC1=C(SC2=C1C(=N[C@H](C3=NN=C(N32)C)CC(=O)N)C4=CC=C(C=C4)Cl)C
How it was run: as §1

[3] = compound: CC1=C2C(=CC=C1)N=C(N(C2=O)C3=CC=CC=C3C)CN4C=NC5=C(N=CN=C54)N
How it was run: as §1

[4] = compound: Cc1sc2c(c1C)C(c1ccc(Cl)cc1)=N[C@@H](CC(=O)OC(C)(C)C)c1nnc(C)n1-2
How it was run: as §1

[5] = compound: c1ccc([C@@H]2C[C@H]2NC2CCNCC2)cc1
How it was run: as §1

Measured: log2 fold change

NT5C2 (UniProt P49902)
inactive: [1] 0.007 | [2] 0.049 | [3] 0.033 | [4] -0.014 | [5] 0.007

OSBP (UniProt P22059)
inactive: [1] 0.015 | [2] 0.084 | [3] 0.076 | [4] -0.002 | [5] 0.031

NSMCE3 (UniProt Q96MG7)
inactive: [1] 0.046 | [2] -0.014 | [3] 0.09 | [4] 0.072 | [5] -0.029

NUDT5 (UniProt C9JYY9)
inactive: [1] -0.18 | [2] 0.02 | [3] 0.132 | [4] -0.209 | [5] 0

OSTC (UniProt Q9NRP0)
inactive: [1] -0.031 | [2] 0.048 | [3] 0.063 | [4] -0.213 | [5] 0.048

NUDT16L1 (UniProt Q9BRJ7)
inactive: [1] -0.067 | [2] 0.032 | [3] 0.006 | [4] 0.049 | [5] -0.01

OPA3 isoform 2 (UniProt Q9H6K4)
inactive: [2] 0.011 | [3] 0.125 | [5] -0.035

NUP214 isoform 5 (UniProt P35658)
inactive: [1] -0.033 | [2] -0.031 | [3] 0.022 | [4] 0.029 | [5] 0.022

OSGEPL1 (UniProt Q9H4B0)
inactive: [2] 0.13 | [3] 0.128 | [5] -0.054

OSBPL2 (UniProt Q9H1P3)
inactive: [2] -0.583 | [5] -0.09

NUDT22 (UniProt Q9BRQ3)
inactive: [1] -0.093 | [3] 0.217

— the supplement of paper PMC10849652
